Assay results reported in patent EP0192317A1, “Homocarnosine or acylhomocarnosine salts” (HAMARI YAKUHIN KOGYO KABUSHIKI KAISHA also known as HAMARI …, priority 1985, dated 1986).
Some results were stated once for a whole list of compounds, not compound by compound.

What follows are substances tested on Wistar strain rats (assay: Acute toxicity study). Details: orally 5 g/kg, observed for 7 days, rats of either sex.
Type: in vivo
Source text: Wistar strain rats of either sex weighing 150 to 200 g were used in groups of 7 animals.

| Substance | death |
| --- | --- |
| (L-homocarnosine)2 zinc salt [(Homocarnosine)2 Zn] | No death |
| (N-acetyl-L-homocarnosine)2 zinc salt [(N-Acetyl-L-Homocarnosine)2 Zn] | No death |
| L-homocarnosine aluminum salt [(Homocarnosine)2 AlOH] | No death |
| L-homocarnosine aluminum salt [(Homocarnosine)3 Al] | No death |
| L-homocarnosine aluminum salt [Homocarnosine Al(OH)2] | No death |
| L-homocarnosine zinc salt [Homocarnosine Zn] | No death |
| N-acetyl-L-homocarnosine aluminum salt [(N-Acetyl-L-Homocarnosine)2 Al] | No death |
| N-acetyl-L-homocarnosine aluminum salt [N-Acetyl-L-Homocarnosine Al(OH)2] | No death |
| N-acetyl-L-homocarnosine zinc salt [N-Acetyl-L-Homocarnosine Zn] | No death |
